One test concerns the target Hsc70-Myc (UniProt P11142). Nature of the test: co-IP; HEK-293A cells, HDAC6 (WT or ΔSE14) with Hsp70 or Hsc70 (Supplementary Fig. 1f); NETN lysate; which partner was precipitated is not told.
A further test addresses Hsp70-FL (UniProt P0DMV8). The description is as above.

Protein sequences, listed by entry. Tags and fused reporters are not part of them. Lines headed by an entry give the natural chain unless they say otherwise; changes in a name come on top. Chains listed by the source or under a name are the forms on record and can include a tag or linker.
UniProt P11142: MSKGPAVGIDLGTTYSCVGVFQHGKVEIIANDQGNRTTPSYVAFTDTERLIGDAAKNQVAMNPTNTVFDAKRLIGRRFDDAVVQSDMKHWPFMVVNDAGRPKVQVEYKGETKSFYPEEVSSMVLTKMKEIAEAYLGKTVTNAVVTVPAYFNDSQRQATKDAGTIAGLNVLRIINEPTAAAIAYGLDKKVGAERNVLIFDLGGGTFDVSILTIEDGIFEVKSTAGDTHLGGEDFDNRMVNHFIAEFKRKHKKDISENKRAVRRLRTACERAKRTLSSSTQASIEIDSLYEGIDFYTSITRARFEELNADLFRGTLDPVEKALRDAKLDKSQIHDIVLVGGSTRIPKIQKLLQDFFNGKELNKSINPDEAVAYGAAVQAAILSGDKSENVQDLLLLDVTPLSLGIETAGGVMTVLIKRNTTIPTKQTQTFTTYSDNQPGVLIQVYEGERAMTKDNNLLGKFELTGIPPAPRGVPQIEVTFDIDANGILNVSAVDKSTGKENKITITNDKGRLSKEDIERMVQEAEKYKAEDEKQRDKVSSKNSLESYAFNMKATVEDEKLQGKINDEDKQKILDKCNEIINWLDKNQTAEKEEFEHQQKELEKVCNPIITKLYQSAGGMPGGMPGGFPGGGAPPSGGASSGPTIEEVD
UniProt P0DMV8: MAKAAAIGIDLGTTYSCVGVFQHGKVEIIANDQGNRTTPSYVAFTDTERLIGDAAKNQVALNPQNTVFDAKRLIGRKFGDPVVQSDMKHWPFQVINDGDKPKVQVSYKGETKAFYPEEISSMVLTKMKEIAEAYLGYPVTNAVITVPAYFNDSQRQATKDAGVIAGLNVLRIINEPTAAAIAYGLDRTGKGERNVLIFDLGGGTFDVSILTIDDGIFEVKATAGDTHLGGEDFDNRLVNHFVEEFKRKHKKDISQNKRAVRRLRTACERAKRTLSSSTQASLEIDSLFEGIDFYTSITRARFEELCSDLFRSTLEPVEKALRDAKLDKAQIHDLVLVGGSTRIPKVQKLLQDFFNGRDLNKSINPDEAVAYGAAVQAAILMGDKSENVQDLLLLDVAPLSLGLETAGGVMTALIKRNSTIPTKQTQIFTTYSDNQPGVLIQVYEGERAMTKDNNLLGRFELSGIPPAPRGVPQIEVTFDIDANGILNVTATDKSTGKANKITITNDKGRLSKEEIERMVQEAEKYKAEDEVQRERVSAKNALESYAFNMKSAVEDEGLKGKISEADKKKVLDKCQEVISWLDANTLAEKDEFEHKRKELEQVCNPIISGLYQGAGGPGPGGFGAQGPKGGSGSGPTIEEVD
UniProt Q9UBN7: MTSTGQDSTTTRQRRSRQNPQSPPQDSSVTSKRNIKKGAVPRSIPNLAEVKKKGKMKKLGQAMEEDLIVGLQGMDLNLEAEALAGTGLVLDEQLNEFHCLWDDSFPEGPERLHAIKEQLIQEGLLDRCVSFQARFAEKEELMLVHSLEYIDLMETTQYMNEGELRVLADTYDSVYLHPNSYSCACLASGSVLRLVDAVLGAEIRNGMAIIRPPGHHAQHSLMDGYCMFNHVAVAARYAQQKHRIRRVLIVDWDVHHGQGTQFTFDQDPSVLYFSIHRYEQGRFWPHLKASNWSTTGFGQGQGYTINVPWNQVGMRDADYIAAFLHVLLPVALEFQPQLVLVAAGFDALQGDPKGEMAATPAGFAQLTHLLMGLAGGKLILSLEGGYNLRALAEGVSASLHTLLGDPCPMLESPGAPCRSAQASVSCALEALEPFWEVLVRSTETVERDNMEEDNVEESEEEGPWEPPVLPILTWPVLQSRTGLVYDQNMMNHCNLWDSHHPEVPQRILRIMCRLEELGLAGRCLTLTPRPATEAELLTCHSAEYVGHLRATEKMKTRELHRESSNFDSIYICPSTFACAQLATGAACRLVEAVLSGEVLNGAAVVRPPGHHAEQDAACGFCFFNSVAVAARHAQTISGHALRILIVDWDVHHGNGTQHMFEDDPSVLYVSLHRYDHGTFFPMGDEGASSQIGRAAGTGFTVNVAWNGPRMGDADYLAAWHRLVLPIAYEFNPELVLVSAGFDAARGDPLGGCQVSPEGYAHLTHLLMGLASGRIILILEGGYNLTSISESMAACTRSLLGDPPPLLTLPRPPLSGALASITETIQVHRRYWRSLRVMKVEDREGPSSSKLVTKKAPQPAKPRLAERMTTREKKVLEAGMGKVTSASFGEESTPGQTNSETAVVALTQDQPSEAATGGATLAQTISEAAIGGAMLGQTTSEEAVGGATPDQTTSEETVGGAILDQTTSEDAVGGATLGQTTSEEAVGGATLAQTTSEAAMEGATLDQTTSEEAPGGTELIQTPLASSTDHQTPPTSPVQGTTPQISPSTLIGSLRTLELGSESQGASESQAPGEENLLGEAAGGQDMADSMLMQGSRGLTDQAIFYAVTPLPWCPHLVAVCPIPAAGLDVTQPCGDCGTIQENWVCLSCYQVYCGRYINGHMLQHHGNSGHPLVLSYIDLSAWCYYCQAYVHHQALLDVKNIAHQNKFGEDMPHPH
FLAG-tagged HDAC6 ΔSE14 (Q9UBN7, form named): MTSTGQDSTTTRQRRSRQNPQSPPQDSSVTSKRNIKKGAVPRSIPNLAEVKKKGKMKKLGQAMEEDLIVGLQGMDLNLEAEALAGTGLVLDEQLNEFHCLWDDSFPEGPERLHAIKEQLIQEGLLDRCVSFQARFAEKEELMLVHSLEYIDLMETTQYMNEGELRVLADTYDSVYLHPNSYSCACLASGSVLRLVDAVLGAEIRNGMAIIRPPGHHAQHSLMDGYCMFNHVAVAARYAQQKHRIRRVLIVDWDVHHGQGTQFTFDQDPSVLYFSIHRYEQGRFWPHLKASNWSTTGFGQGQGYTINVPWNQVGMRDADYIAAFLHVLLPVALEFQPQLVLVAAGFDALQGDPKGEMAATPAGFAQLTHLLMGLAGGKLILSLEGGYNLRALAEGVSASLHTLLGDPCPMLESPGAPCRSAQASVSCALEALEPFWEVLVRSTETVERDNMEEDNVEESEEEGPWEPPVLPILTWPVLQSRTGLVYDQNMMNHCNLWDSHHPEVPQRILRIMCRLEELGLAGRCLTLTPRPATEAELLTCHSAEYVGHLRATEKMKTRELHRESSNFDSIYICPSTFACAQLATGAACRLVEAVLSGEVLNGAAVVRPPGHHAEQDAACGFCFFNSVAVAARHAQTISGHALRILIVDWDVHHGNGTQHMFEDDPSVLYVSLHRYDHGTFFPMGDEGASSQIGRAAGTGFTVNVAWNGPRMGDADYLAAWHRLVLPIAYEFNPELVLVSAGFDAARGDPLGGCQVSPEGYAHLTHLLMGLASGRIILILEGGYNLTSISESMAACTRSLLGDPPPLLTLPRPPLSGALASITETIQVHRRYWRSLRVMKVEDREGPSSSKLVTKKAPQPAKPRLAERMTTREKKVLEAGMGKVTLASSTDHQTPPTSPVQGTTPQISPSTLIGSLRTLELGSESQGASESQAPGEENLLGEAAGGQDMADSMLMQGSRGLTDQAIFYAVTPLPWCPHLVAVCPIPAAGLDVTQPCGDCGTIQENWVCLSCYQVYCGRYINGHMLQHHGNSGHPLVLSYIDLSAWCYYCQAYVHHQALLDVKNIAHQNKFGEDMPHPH

This is an account of results in publication PMC7606452.

No constants are given. Whether binding was seen depends on the method and setting. Binding seen in cells or lysates may run through a third protein. Some entries that bind do so weakly or less than the wild type.

Turning to “FLAG-tagged HDAC6 (WT) (from UniProt Q9UBN7 1-1215) (enzyme)”, the binding result with Hsc70-Myc and with Hsp70-FL was “binds” each time.
In the case of “FLAG-tagged HDAC6 ΔSE14 (from UniProt Q9UBN7 1-1215) (enzyme)”, the binding entry with Hsc70-Myc and with Hsp70-FL was “binds” throughout.
